This passage reports binding results from paper PMC7866230.

The chains behind the UniProt entries cited, without tags or fusion partners.
UniProt Q9QZL0: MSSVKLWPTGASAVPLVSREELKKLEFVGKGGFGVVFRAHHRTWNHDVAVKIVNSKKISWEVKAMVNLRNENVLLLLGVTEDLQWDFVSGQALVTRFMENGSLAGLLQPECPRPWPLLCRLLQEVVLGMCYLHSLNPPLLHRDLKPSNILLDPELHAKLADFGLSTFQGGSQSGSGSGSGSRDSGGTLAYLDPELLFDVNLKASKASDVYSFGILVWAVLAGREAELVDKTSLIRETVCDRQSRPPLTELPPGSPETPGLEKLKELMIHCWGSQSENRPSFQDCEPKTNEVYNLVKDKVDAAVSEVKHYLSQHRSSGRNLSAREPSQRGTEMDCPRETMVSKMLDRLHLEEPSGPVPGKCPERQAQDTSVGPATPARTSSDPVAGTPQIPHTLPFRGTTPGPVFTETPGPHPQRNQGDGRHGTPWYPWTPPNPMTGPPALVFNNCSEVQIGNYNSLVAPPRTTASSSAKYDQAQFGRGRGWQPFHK

These are yes or no findings as the source states them, for the method shown. Binding seen in cells or lysates may run through a third protein. Some binding calls cover weakened binding; strength is not graded here.

This assay deals with receptor-interacting protein 3 (mouse (endogenous in Balb/C liver)) (UniProt Q9QZL0). In words: co-IP; RIP3 immunoprecipitated (rabbit polyclonal anti-RIP3/RIP3K, protein A/G beads, overnight 4 °C) from 100 μg extract of liver homogenates of Balb/C mice treated with LPS and miR-675 or siCtrl; MLKL detected by Western blot.

B1: Mixed Lineage Kinase Domain-Like Pseudokinase (protein, UniProt Q9D2Y4 1-472)
chain: MDKLGQIIKLGQLIYEQCEKMKYCRKQCQRLGNRVHGLLQPLQRLQAQGKKNLPDDITAALGRFDEVLKEANQQIEKFSKKSHIWKFVSVGNDKILFHEVNEKLRDVWEELLLLLQVYHWNTVSDVSQPASWQQEDRQDAEEDGNENMKVILMQLQISVEEINKTLKQCSLKPTQEIPQDLQIKEIPKEHLGPPWTKLKTSKMSTIYRGEYHRSPVTIKVFNNPQAESVGIVRFTFNDEIKTMKKFDSPNILRIFGICIDQTVKPPEFSIVMEYCELGTLRELLDREKDLTMSVRSLLVLRAARGLYRLHHSETLHRNISSSSFLVAGGYQVKLAGFELSKTQNSISRTAKSTKAERSSSTIYVSPERLKNPFCLYDIKAEIYSFGIVLWEIATGKIPFEGCDSKKIRELVAEDKKQEPVGQDCPELLREIINECRAHEPSQRPSVDGRSLSGRERILERLSAVEESTDKKV
As to B1, the binding result was “binds”.
